Measured values as given in patent US20230357323A1, “HUMAN IL23 RECEPTOR BINDING POLYPEPTIDES” (University of Washington, priority 2020, published 2023).
Some results were stated once for a whole list of compounds, not compound by compound.

Assay: Proteolytic stability in simulated gastric fluid (SGF), SDS PAGE
Format: in vitro ADME
Details: pepsin, pH 2; 37° C.; SDS PAGE up to 24 hours
Text: While resistance to high heat is important for manufacturing and storage, and resistance to chemical denaturant is a good proxy for stability overall, any oral, gut-restricted IL-23R inhibitor will preferably survive the harsh conditions of the gastrointestinal tract, including high acidity and physiological proteases, to reach the site of action intact. To determine feasibility of oral administration, we therefore more directly assessed the stability of our designed IL-23R inhibitors in simulated gastric fluid (SGF), including the protease pepsin at pH 2, and simulated intestinal fluid (SIF), including proteases trypsin and chymotrypsin at pH 6.5. Proteolysis was assessed qualitatively by SDS PAGE at timepoints up to 24 hours.
Simulated intestinal fluid (SIF) was prepared as recommended by Jantratid et al. (termed FaSSIFv2) with the addition of proteases trypsin and chymotrypsin each at 30 μg/mL.^18 This composition is denoted as “1x SIF” in the text. In some instances, designed proteins (pure recombinant protein, or yeast libraries as above) or the comparator V565-38F were so stable that minimal degradation could be detected at the maximum duration (24 hours for SDS PAGE experiments, 90 minutes for cytometry experiments). […]

Sequence | SGF t1/2 [h]
PEPEKYLQELCKKYYEGKLSQQEAVEEIRKYARKWGLEAWKLVWYFMQCVKRDI [rA11dslf02_M1P_R8Q_K35W] | 4 to 24
PLWQVFYLLNTCIKRTGDPTCKKLAKALRECLKKGDLKACNELADKAVKYINS [B04dslf02IB] | 4 to 24
